Measurements published in the supplement of paper PMC12819154, “High-throughput peptide-centric local stability assay extends protein–ligand identification to membrane proteins, tissues and bacteria” (Nature Structural & Molecular Biology, 2025).
This is one part of the list. Most entries show no effect beyond the scatter of the controls.

The chains behind the UniProt entries cited, without tags or fusion partners. Where a name states a change or a piece, a line headed by the entry shows the natural chain unless it says otherwise.
UniProt P76082: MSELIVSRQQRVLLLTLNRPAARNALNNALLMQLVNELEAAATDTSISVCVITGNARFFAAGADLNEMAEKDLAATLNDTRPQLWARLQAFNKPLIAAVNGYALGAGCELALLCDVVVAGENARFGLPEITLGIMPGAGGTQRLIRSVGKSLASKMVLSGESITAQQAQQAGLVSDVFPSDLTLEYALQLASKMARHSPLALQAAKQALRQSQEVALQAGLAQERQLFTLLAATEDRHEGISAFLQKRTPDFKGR
UniProt P76001: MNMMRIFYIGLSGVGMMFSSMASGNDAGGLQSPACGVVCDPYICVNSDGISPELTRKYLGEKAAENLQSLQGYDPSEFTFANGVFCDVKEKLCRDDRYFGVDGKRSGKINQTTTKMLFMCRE
UniProt P77609: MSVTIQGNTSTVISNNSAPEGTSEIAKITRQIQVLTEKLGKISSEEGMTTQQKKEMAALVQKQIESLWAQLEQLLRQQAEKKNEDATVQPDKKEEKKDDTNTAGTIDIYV
UniProt P76550: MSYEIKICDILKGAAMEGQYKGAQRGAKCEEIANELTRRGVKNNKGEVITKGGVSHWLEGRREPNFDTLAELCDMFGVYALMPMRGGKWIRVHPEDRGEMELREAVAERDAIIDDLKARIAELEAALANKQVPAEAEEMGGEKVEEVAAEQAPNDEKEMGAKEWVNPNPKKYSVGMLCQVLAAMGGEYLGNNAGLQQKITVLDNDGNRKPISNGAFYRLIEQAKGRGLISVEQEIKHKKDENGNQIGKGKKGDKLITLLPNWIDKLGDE
UniProt P76223: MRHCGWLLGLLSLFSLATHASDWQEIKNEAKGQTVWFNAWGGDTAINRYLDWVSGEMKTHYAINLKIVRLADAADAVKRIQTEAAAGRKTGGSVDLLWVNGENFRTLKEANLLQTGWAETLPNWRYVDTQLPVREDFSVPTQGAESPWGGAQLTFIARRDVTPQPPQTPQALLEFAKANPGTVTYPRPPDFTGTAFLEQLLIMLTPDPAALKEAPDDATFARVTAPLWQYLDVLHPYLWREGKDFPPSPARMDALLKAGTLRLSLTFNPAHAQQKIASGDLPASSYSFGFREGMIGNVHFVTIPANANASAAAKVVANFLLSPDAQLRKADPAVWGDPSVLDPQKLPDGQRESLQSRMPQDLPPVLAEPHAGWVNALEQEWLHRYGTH

What follows are targets tested with CC1(C)S[C@@H]2[C@H](NC(=O)[C@H](N)c3ccccc3)C(=O)N2[C@H]1C(=O)O [ampicillin] (assay: log2 fold change of tryptic peptide abundance, ligand vs vehicle (limited proteolysis) (log2 ratio); higher = more trypsin-susceptible (destabilized)). Conditions: ligand concentration: 10 uM; sample: E. coli crude lysate.

Target	log2 fold change
UniProt P76082 (peptide sequence: VLLLTLNRPAAR, peptide start residue: 12)	-0.116
UniProt P76001 (peptide sequence: INQTTTKMLFMCRE, peptide start residue: 109)	0.336
UniProt P77609 (peptide sequence: KNEDATVQPDKK, peptide start residue: 82)	0.403
UniProt P76550 (peptide sequence: ICDILKGAAMEGQYK, peptide start residue: 7)	-0.244
UniProt P76223 (peptide sequence: KADPAVWGDPSVLDPQKLPDGQR, peptide start residue: 329)	0.274
